The target in this test is T1, RAD21-LAP (mouse (BAC transgene in mouse R1/E ESC)) (UniProt Q61550).
T1 sequence: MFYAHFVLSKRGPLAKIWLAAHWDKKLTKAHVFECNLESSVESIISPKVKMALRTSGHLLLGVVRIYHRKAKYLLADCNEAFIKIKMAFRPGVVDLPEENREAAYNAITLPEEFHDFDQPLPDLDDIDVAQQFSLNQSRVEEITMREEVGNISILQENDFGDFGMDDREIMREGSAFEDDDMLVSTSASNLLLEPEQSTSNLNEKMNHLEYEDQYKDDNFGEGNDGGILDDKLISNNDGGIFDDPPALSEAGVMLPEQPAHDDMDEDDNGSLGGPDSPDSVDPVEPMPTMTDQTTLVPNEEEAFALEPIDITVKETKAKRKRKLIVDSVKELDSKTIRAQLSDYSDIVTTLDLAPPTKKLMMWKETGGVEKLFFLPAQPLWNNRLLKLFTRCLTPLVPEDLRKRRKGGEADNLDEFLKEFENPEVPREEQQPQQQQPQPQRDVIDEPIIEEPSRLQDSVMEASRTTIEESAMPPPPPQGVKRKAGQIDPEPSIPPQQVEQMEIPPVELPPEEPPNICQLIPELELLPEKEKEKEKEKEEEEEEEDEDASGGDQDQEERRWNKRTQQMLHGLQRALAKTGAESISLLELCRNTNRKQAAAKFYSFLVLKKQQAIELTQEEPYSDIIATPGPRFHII
Put plainly: co-IP; RAD21-LAP immunoprecipitation from RAD21 BAC-GFP ESC with a GFP antibody; Western blot.

Amino acid sequences for entries named in this document (tags omitted).
UniProt Q9CW03: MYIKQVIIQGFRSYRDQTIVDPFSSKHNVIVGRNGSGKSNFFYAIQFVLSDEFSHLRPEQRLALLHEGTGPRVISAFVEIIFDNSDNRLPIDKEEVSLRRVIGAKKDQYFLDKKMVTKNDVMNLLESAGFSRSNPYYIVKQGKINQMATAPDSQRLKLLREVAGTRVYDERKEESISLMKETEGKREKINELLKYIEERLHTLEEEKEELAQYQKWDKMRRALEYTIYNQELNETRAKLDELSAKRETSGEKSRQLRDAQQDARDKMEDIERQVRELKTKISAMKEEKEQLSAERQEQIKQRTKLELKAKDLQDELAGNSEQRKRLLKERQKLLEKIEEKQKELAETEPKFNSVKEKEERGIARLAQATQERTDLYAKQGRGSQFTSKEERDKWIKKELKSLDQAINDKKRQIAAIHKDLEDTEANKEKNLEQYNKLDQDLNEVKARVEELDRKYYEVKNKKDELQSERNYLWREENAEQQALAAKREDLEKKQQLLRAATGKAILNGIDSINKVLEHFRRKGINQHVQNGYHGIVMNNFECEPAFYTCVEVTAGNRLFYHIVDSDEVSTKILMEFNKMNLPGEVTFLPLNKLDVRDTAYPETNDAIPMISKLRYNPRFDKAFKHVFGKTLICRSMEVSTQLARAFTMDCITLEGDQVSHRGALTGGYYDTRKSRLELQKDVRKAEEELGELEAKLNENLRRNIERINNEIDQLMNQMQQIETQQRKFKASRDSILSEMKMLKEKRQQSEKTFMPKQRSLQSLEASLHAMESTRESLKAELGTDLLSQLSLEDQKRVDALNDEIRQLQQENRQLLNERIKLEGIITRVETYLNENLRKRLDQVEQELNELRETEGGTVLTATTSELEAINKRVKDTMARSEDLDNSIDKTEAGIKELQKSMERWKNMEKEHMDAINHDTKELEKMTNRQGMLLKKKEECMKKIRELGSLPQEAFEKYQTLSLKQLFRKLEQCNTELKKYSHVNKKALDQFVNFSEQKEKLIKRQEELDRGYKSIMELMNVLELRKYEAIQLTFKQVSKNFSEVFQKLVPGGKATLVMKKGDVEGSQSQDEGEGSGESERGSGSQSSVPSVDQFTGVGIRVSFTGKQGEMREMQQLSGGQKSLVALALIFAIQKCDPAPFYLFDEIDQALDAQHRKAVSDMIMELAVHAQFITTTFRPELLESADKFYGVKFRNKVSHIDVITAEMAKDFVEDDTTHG

These are yes or no findings as the source states them, for the method shown. In cells and extracts the contact can be indirect. Some results given as binding are weak or reduced against the parent protein; the word gives no strength.

In the case of SMC3 (from UniProt Q9CW03 1-1217), the binding entry is given as “binds”.

(Values after paper PMC3093395.)
